Article doi:10.1101/2021.12.24.474151
No constants are given. Whether binding was seen depends on the method and setting. Binding seen in cells or lysates may run through a third protein. Some entries that bind do so weakly or less than the wild type.

The chains behind the UniProt entries cited, without tags or fusion partners.
UniProt P35637: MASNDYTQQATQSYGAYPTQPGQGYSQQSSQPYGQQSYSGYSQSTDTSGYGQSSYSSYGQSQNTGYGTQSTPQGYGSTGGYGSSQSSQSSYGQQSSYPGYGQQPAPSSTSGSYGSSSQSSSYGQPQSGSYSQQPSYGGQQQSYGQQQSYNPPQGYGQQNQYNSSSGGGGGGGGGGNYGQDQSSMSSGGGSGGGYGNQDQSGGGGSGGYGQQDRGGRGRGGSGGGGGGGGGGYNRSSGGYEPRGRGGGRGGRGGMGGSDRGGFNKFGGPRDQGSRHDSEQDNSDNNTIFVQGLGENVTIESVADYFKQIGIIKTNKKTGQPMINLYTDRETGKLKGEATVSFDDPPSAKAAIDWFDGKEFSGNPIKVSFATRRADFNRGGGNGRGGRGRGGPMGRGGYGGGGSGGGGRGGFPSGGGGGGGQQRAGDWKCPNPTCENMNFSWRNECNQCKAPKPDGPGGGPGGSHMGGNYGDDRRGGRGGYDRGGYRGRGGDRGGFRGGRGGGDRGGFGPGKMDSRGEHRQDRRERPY

Target: Halo-FLAG-FUS (wild type) complexed with the photoreactive ligand PL (UniProt P35637)
Experiment: cross-linking

binding: binds
Substance: Valosin-containing protein (VCP), endogenous in the cells of the photo-cross-linking experiment (from UniProt P55072 1-806)
